Laboratory results reported in PMC11022108.

By UniProt entry, the sequences of proteins in these tests, tags left out. Where a name states a change or a piece, a line headed by the entry shows the natural chain unless it says otherwise.
UniProt O04922: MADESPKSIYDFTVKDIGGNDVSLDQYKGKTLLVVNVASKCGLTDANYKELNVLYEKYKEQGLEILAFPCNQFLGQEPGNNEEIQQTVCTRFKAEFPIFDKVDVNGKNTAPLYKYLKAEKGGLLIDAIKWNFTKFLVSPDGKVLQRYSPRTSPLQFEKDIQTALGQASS

Biological target: glutathione peroxidase-like GPXL2 fused to eYFP (Arabidopsis thaliana) (UniProt O04922)
Assay: FRET or BRET; FRET between mTurquoise2 (donor) and eYFP (acceptor) by sensitized emission in transfected A. thaliana leaf protoplasts; cells untreated, reduced with 1 mM DTT for 30 min, or first reduced and then oxidized with 5 mM H2O2 for 30 min

B1: cytosolic malate dehydrogenase 1 (MDH1) fused to a fluorescent protein (enzyme, UniProt P93819 1-332)
chain: MAKEPVRVLVTGAAGQIGYALVPMIARGIMLGADQPVILHMLDIPPAAEALNGVKMELIDAAFPLLKGVVATTDAVEGCTGVNVAVMVGGFPRKEGMERKDVMSKNVSIYKSQAAALEKHAAPNCKVLVVANPANTNALILKEFAPSIPEKNISCLTRLDHNRALGQISERLSVPVSDVKNVIIWGNHSSSQYPDVNHAKVQTSSGEKPVRELVKDDAWLDGEFISTVQQRGAAIIKARKLSSALSAASSACDHIRDWVLGTPEGTFVSMGVYSDGSYSVPSGLIYSFPVTCRNGDWSIVQGLPIDEVSRKKMDLTAEELKEEKDLAYSCLS
binding: binds

No constants are given. Whether binding was seen depends on the method and setting. Binding seen in cells or lysates may run through a third protein. Binding can be weak; no strength is given. Tags and fused reporters may be left off the sequences shown.
